Measured values published in US5652100A, “Stably transfected rodent fibroblast cell lines expressing human GABA-A -receptors” (priority 1992, dated 1997).

Biological target: T1, recombinant GABAA receptor (α1 β1 γ2L) expressed by population A cells (Bos taurus, UniProt P08219+P08220+P22300)
T1 construct: expressed in transfected cells; clone 'population A'
T1 sequence (P08219 28-456): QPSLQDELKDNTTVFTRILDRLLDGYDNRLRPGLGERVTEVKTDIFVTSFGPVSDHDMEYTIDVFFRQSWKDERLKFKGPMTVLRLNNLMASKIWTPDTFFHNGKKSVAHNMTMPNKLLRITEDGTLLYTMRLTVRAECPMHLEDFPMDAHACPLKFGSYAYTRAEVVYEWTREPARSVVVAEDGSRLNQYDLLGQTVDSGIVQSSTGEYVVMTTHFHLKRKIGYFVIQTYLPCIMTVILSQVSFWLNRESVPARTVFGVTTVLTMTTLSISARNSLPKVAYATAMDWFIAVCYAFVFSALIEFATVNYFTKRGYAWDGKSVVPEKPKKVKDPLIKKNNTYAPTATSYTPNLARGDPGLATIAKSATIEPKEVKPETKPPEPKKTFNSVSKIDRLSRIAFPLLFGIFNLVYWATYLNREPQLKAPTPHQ
T1 sequence (P08220 26-474): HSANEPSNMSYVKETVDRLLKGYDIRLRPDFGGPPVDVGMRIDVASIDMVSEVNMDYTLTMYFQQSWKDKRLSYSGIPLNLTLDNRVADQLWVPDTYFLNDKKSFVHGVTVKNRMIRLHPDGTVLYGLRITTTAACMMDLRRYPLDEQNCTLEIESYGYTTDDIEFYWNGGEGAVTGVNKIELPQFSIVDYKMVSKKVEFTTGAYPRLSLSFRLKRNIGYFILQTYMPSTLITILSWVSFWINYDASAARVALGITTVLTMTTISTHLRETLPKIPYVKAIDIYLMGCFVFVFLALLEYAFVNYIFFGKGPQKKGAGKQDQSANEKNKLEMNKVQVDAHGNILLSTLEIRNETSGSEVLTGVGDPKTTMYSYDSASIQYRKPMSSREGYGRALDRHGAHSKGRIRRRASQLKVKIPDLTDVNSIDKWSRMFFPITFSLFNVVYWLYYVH
T1 sequence (P22300 40-475): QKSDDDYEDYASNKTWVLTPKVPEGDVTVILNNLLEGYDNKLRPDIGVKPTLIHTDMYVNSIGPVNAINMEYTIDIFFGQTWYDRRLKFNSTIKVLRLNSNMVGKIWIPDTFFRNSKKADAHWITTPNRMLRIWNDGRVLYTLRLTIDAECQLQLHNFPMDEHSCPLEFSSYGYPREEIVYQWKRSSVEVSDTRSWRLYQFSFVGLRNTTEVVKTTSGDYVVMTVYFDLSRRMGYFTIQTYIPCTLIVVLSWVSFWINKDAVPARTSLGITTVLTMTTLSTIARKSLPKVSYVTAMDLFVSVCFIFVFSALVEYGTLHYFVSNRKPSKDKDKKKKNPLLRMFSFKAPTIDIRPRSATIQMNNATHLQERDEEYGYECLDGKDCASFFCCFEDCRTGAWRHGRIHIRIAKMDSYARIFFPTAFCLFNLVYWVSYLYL
Experiment: cell-based
Design: species or system bovine
Conditions: dexamethasone-induced cells, whole cell patch clamp; read-out: log EC50 of GABA concentration response curves (converted)

Question: How did the EC50 turn out when `NCCCC(=O)O` [GABA, Gamma-amino butyric acid] was run?
Answer: The EC50 was 6.31 µM.
